At least one compound was matched to its structure with a doubt left. Some entries share one result that the patent states for a list of compounds.
How the values were obtained:
[1] = target: Peptide Deformylase (S. Aureus) (Staphylococcus aureus, UniProt P68826); assay: Yonetani-Theorell / Dixon graphical determination of interaction constant between two inhibitors from enzyme kinetic rates; format: biochemical; settings: Yonetani-Theorell graphical method; pair of inhibitors; FIG. 6
[2] = target: Ni^2+ form of Peptide Deformylase (S. Aureus) (Staphylococcus aureus, UniProt P68826); assay: Deformylation of For-Met-Ala-Ser-OH by Ni-PDF monitored by 1H NMR over incubation times; format: biochemical; settings: hydrazine 15 mM final sample concentration added at about 22-24 minutes; FIG. 5

Amino acid sequences for entries named in this document (tags omitted). A change or cut given only in a name is not applied to a line headed by its entry.
UniProt P68826: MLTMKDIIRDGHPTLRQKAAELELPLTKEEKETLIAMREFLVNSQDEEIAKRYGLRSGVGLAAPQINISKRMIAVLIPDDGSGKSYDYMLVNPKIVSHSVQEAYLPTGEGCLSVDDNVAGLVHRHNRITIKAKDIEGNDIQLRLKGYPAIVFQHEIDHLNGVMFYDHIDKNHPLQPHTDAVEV

Row | Structure (SMILES) | interaction constant α between two inhibitors [1] | quenching of the enzymatic reaction [2]
1 | O=CNO [formohydroxamic acid] | > 1 | –
2 | NN [hydrazine] | – | successfully stopped

— patent US20070248997A1, “METHOD OF USING ONE-D[…] MULTI-D[…] MAGNETIC RESONANCE TO IDENTIFY COMPOUNDS THAT INTERACT WITH TARGET BIOMOLECULES” (Smithkline Beecham Corporation, priority 1999, published 2007)
